42 sequences from paper PMC7819943, “Rice protein-binding microarrays: a tool to detect cis-acting elements near promoter regions in rice” can be followed below.

Some of the results follow.

This test concerns the target T1, OsSMF1 (Oryza sativa, UniProt Q6ZLB0 1-436).
T1 sequence: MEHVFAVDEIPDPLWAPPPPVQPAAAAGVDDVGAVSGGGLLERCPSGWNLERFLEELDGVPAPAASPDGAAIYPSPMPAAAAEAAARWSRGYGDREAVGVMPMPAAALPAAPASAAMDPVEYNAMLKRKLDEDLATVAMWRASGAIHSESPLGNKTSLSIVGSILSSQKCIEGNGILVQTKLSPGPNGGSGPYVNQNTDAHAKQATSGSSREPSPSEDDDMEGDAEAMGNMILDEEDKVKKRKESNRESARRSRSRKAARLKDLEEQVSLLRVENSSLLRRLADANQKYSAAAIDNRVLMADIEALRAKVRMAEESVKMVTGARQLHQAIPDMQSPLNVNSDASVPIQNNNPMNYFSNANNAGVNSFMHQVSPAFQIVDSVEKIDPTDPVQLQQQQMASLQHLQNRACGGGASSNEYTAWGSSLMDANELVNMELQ
Kind of test: protein-binding microarray (RPBM); PBS, 2% BSA, 51.3 ng/ul salmon testes DNA, 50 uM zinc acetate, 200 nM TF, 25 C, 1 h; high values mean tight binding. To be noted: protein: recombinant; tags: N-terminal polyhistidine and DsRed monomer fusion (pET32a); chain copies: 2; label: CyDye5-dUTP incorporated in the synthesized complementary strand; 3' TTTTT single-stranded linker to array surface; dsDNA, one strand shown. In short, it runs like this: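 For the binding signal, per-feature fluorescence intensity was read in arbitrary units on an Axon 4000B scanner. Before scanning, a 2% BSA-blocked custom Agilent array made double-stranded with Cy5-dUTP was washed after 1 h at 25 °C with 200 nM protein and 50 µM zinc acetate. The proteins were Ni–NTA-purified transcription factors with N-terminal polyhistidine and DsRed fusions, expressed in E. coli BL21-CodonPlus.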
On to “TTGTGATGGTGGAGCTGAGGAGCCTTCTCTCCAGCATTGTCGGAGTCACCTAGTGCAG”, for which the binding signal is 3250 fluorescence intensity (a.u.). For “GTAACTAAAGATACAAAATTATTAGTGTAACCGGAGGCATCGGAGTCACCTAGTGCAG”, the binding signal is 34600 fluorescence intensity (a.u.).

As for “GATCAATGGGCCAACGTTGCTGGACTAAGCAAGCCGAGGCCGGAGTCACCTAGTGCAG”, the binding signal was 27100 fluorescence intensity (a.u.). Then “GCGATCTAGTCCGCGGCCACGTCGGGCCAAACGGGCGGCCCGGAGTCACCTAGTGCAG”, with 6560 fluorescence intensity (a.u.); and “CTTCTCGCCGGAGTCCACGTGTCGGCCTCGCCGGCACCGGCGGAGTCACCTAGTGCAG”, with 9920 fluorescence intensity (a.u.). The figure for “TAGTTTTAGTTTTATAGTTATCTTTTGCATCGACTTTTAACGGAGTCACCTAGTGCAG” is 4130 fluorescence intensity (a.u.); for “GCCATTGATGACAAAGACAACCTGGAAGATTACTGTTGCACGGAGTCACCTAGTGCAG” it is 64300 fluorescence intensity (a.u.). The figure for “GGCCGGCGCCGGCCCACGTGCCACTAATGGACTCGTGCCGCGGAGTCACCTAGTGCAG” is 4470 fluorescence intensity (a.u.); for “AGATTTGCGTGGTGTGACATTCCTGACAAACCAGGCATTACGGAGTCACCTAGTGCAG” it is 3250 fluorescence intensity (a.u.). As to “TTTCTTTTGCTTCTCTTGAAGTACGTCACGTTTCCACTTGCGGAGTCACCTAGTGCAG”, the binding signal is 5460 fluorescence intensity (a.u.).

Turning to “AGAACAGCAGCCACGGCAAGCCCTTCGATGAACAAACACCCGGAGTCACCTAGTGCAG”, the binding signal is 26000 fluorescence intensity (a.u.). In the case of “TATTATACGTATCAATTCACACGTTATCTTTATTCAGGCCCGGAGTCACCTAGTGCAG”, the binding signal is 4190 fluorescence intensity (a.u.).

On to “AACCCAGCCCCTAGATTGTGTCATCAGTCATCACCCACATCGGAGTCACCTAGTGCAG”, for which the binding signal was 6470 fluorescence intensity (a.u.). Then “ATTTATTATTTGAACTGATGGCTGTCAGGTGCTTCTCTTTCGGAGTCACCTAGTGCAG”, with 3590 fluorescence intensity (a.u.). In the case of “CTCACATAAACAACGAATCTAGATGACTCAGATTCTTATCCGGAGTCACCTAGTGCAG”, the binding signal was 4730 fluorescence intensity (a.u.). The figure for “CCCTCCCTCGCTTGACTTCTCTCTCCGCGTCACTTCTCTTCGGAGTCACCTAGTGCAG” is 5500 fluorescence intensity (a.u.); for “TGATGAACCCCTGCCACTGCTAGTGGATTCTTGCCGTTTCCGGAGTCACCTAGTGCAG” it is 18100 fluorescence intensity (a.u.). With “GTGTGGTGTTACGTGCGTAGTGGTGTGTATATATATCTGTCGGAGTCACCTAGTGCAG”, the binding signal was 4740 fluorescence intensity (a.u.). Then “GCGGCGACAGGTGGCAGGCCGATGGGCGGGCTAGGGTTTGCGGAGTCACCTAGTGCAG”, with 3510 fluorescence intensity (a.u.); and “ATACAGGTGGCAATATGGTGAGTTGGCAAACAACCCTCTTCGGAGTCACCTAGTGCAG”, with 7460 fluorescence intensity (a.u.). The figure for “ACAAATCGGTCATTCTTGTCCACCACGCGTCAGTTTATCACGGAGTCACCTAGTGCAG” is 5240 fluorescence intensity (a.u.); for “GCGGGAGATGCACGCCGCCAGCATCATCCCGGACTGCATTCGGAGTCACCTAGTGCAG” it is 4020 fluorescence intensity (a.u.). The figure for “CGATTCCCGATGCTCGCGAAGTTTCTTTTCTCCGTTTCTCCGGAGTCACCTAGTGCAG” is 22100 fluorescence intensity (a.u.); for “GTTTATATATATGCAATCTGCGCGTGCACCGGCATAGGATCGGAGTCACCTAGTGCAG” it is 3880 fluorescence intensity (a.u.). Turning to “CATCTTCCCCATCTACACGTGTGACCCAACATTCAGATTCCGGAGTCACCTAGTGCAG”, the binding signal is 4970 fluorescence intensity (a.u.). Take “CGCCATCACCGGTCCATCGCCGCCCGCGTCAGCCCCGTCGCGGAGTCACCTAGTGCAG”: the binding signal is 7460 fluorescence intensity (a.u.). Then “AAAATAGTGACGCATATTATCCGGTGTGTGCATGCAAGCTCGGAGTCACCTAGTGCAG”, with 7810 fluorescence intensity (a.u.); and “ATTTAATAACTTCTATGGACAATATGTGCCCTGAAACTACCGGAGTCACCTAGTGCAG”, with 48800 fluorescence intensity (a.u.); and “ACGCGTTCTTCCTTTCCGCGTTCGTGTGCAGCCCCACAGTCGGAGTCACCTAGTGCAG”, with 3470 fluorescence intensity (a.u.). “TGTGGAAGATTATGATTAATTGAAAAGATAATGTACGTGCCGGAGTCACCTAGTGCAG”: the binding signal is 16700 fluorescence intensity (a.u.). Then “TCAGTGAGGATATTAATTGAACTCCCATTGCCAACACCCCCGGAGTCACCTAGTGCAG”, with 3520 fluorescence intensity (a.u.); and “TACACGAAACTCCAAACAGAAAGGTAACACCTGTCACCCTCGGAGTCACCTAGTGCAG”, with 4720 fluorescence intensity (a.u.); and “CTTCATCGGGAACATTTTGAGTGGGCATAAGGTATTTGAGCGGAGTCACCTAGTGCAG”, with 32900 fluorescence intensity (a.u.). The figure for “ACTCCGTCTTCCTGGTAACTCACACTCACTTATCTGTATCCGGAGTCACCTAGTGCAG” is 3730 fluorescence intensity (a.u.); for “CACTCGCGCCGGCCCACACCCCTCCTCCCGCCTGGCGGCGCGGAGTCACCTAGTGCAG” it is 3380 fluorescence intensity (a.u.). The figure for “CCTCACATATTACAACGAGGTCCACCGCAGCTATTCCACACGGAGTCACCTAGTGCAG” is 3530 fluorescence intensity (a.u.); for “TCTGCCCATGGTCTGCCCGGCCGACTCCGTGTCAGTTTCGCGGAGTCACCTAGTGCAG” it is 3430 fluorescence intensity (a.u.).

For the sequence “ACCTGACGTCAGACGACGATTAGCCACGTGGCACACAGTGCGGAGTCACCTAGTGCAG”, the binding signal is 31200 fluorescence intensity (a.u.). The figure for “GATACTCCTTAGCAATCATATACTCATATGACATATCCAACGGAGTCACCTAGTGCAG” is 3180 fluorescence intensity (a.u.). The figure for “GCCTTGTTTTACTATAAGTTAAGTCATTCCAAGTTTGTAGCGGAGTCACCTAGTGCAG” is 17300 fluorescence intensity (a.u.); for “GCCGCCGCTGACCCGCAGGCCACGCTGCTCAACCTGGGGTCGGAGTCACCTAGTGCAG” it is 4090 fluorescence intensity (a.u.). Regarding “ATGTAGGATGTCATGTTGTAGTTCTATATATGCGTGGGGTCGGAGTCACCTAGTGCAG”, the binding signal was 3270 fluorescence intensity (a.u.).
